Measurements taken from the supplement of paper PMC10849652.
The list shows a part of the results.

By UniProt entry, the sequences of proteins in these tests, tags left out. Where a name states a change or a piece, a line headed by the entry shows the natural chain unless it says otherwise.
UniProt P02787, whole entry, looked up: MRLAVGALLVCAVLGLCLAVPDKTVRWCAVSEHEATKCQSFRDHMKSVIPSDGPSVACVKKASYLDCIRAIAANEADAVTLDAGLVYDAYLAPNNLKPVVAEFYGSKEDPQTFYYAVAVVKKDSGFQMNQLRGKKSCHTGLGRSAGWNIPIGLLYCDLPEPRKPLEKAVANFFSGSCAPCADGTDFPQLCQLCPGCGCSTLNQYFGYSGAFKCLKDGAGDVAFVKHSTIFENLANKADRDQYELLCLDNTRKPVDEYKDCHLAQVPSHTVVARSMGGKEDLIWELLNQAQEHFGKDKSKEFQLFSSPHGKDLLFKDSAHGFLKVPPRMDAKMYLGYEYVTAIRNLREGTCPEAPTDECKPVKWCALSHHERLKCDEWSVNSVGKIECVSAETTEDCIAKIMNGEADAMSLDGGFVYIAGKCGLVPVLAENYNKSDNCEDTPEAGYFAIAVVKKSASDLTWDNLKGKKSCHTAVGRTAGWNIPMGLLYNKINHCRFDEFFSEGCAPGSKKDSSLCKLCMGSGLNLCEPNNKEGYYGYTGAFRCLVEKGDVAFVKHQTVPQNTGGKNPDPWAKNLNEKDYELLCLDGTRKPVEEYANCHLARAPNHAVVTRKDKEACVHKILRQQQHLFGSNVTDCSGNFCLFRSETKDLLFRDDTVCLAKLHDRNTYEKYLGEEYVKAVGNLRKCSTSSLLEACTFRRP
UniProt Q9Y4C2: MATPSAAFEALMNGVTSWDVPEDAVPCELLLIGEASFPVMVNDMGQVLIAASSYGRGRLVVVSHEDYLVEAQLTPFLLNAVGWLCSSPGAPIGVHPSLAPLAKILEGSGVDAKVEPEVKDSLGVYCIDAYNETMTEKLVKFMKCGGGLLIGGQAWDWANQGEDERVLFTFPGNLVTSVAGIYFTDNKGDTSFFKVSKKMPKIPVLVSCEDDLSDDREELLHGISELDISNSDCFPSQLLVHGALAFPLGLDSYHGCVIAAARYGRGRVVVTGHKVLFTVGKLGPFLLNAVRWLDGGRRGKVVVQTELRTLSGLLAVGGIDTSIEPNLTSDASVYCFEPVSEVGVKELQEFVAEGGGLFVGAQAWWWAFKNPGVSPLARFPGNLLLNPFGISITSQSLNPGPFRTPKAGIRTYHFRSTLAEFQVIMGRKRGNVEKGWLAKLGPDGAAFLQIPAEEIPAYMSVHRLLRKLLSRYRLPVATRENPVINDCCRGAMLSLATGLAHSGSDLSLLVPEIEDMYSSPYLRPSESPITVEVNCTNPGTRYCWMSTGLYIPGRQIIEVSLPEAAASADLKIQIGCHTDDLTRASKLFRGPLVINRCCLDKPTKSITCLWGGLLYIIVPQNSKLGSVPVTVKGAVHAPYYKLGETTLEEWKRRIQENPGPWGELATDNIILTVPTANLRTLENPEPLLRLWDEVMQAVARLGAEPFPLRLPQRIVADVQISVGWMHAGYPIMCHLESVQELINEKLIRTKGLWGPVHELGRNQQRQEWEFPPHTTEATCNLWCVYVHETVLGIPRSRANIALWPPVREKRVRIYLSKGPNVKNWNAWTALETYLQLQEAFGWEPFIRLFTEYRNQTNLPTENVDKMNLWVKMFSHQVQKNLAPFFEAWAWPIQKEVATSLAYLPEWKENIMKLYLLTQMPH
UniProt Q92609: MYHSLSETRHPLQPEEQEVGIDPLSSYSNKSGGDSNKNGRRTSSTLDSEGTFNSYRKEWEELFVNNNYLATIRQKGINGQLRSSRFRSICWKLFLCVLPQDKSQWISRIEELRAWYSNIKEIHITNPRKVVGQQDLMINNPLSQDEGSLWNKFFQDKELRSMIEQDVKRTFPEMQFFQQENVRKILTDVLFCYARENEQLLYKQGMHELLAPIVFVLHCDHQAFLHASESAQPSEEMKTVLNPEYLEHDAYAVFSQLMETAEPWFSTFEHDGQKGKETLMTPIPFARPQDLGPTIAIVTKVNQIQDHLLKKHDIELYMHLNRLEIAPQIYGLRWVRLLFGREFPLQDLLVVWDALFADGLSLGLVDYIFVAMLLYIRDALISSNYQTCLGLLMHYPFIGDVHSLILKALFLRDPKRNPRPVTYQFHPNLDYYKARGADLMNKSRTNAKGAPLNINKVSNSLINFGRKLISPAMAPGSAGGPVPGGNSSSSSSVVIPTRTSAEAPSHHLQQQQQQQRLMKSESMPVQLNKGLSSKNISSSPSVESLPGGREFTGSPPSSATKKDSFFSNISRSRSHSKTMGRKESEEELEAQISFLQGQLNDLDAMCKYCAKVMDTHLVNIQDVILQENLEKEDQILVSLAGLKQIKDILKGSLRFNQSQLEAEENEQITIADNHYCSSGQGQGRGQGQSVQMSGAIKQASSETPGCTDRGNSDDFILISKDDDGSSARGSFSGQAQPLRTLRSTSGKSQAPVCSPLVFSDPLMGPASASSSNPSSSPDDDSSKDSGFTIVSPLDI
UniProt P17542, whole entry, looked up: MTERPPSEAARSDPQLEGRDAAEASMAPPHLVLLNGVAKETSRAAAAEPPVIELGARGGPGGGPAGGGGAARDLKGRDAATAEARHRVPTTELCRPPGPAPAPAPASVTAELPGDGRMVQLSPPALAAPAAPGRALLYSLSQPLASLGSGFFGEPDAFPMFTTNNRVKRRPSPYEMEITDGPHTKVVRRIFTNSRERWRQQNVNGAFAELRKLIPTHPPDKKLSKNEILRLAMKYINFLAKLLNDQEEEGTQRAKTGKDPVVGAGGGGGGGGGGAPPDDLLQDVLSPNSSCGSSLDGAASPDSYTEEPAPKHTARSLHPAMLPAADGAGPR
UniProt Q00059: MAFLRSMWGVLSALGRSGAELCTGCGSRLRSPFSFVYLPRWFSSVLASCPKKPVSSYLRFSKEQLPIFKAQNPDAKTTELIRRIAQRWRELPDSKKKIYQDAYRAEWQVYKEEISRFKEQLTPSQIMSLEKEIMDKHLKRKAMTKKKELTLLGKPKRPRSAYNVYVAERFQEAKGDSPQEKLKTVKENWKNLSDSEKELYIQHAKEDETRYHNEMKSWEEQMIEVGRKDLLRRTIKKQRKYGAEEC
UniProt Q86VP1, whole entry, looked up: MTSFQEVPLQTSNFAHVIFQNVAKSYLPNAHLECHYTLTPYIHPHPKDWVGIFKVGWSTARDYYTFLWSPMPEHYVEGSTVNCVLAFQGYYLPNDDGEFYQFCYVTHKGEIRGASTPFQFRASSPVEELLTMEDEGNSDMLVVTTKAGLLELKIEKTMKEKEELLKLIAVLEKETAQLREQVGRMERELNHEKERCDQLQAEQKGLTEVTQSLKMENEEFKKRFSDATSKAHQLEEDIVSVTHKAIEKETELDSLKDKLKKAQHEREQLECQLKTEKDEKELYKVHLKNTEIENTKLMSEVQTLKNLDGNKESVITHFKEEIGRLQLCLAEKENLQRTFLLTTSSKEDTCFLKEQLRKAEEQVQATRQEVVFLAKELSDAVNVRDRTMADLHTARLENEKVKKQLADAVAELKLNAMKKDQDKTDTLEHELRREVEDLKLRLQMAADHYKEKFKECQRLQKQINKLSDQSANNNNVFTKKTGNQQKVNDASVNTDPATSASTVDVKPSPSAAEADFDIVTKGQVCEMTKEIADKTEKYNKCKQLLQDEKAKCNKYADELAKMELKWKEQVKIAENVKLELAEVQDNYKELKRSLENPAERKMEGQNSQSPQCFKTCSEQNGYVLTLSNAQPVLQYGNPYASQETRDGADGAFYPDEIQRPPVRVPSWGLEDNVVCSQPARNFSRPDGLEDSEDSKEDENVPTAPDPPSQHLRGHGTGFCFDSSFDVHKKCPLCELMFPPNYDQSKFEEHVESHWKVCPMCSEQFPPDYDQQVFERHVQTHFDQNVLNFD
UniProt Q6NXT6: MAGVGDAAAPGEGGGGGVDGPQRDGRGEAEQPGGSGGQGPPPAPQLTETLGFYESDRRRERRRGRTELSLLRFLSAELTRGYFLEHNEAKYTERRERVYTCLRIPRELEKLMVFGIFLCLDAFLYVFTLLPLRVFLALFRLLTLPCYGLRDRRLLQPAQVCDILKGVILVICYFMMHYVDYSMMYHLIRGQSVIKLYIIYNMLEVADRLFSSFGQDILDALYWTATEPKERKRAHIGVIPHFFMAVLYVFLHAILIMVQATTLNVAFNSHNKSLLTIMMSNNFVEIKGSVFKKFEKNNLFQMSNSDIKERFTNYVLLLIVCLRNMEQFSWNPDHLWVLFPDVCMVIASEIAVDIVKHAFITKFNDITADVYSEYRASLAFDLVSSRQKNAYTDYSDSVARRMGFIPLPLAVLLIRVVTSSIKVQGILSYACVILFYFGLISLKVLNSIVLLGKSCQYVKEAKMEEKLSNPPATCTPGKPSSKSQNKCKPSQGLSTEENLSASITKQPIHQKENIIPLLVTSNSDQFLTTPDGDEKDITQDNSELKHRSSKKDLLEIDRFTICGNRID
UniProt Q15554: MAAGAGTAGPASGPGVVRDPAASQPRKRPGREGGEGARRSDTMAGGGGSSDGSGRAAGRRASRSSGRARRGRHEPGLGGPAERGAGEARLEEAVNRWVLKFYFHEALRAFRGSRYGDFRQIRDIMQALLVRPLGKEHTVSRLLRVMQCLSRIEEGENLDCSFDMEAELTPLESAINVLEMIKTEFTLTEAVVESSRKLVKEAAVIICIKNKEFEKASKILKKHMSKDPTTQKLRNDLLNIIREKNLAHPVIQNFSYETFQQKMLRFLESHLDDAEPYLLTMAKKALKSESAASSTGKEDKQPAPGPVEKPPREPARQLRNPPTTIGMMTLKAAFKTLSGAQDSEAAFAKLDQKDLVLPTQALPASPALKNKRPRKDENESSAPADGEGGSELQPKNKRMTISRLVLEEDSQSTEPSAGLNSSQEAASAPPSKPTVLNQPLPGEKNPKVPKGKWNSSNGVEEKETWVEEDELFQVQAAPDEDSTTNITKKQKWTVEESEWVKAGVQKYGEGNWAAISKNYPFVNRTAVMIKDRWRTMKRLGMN
UniProt Q13395: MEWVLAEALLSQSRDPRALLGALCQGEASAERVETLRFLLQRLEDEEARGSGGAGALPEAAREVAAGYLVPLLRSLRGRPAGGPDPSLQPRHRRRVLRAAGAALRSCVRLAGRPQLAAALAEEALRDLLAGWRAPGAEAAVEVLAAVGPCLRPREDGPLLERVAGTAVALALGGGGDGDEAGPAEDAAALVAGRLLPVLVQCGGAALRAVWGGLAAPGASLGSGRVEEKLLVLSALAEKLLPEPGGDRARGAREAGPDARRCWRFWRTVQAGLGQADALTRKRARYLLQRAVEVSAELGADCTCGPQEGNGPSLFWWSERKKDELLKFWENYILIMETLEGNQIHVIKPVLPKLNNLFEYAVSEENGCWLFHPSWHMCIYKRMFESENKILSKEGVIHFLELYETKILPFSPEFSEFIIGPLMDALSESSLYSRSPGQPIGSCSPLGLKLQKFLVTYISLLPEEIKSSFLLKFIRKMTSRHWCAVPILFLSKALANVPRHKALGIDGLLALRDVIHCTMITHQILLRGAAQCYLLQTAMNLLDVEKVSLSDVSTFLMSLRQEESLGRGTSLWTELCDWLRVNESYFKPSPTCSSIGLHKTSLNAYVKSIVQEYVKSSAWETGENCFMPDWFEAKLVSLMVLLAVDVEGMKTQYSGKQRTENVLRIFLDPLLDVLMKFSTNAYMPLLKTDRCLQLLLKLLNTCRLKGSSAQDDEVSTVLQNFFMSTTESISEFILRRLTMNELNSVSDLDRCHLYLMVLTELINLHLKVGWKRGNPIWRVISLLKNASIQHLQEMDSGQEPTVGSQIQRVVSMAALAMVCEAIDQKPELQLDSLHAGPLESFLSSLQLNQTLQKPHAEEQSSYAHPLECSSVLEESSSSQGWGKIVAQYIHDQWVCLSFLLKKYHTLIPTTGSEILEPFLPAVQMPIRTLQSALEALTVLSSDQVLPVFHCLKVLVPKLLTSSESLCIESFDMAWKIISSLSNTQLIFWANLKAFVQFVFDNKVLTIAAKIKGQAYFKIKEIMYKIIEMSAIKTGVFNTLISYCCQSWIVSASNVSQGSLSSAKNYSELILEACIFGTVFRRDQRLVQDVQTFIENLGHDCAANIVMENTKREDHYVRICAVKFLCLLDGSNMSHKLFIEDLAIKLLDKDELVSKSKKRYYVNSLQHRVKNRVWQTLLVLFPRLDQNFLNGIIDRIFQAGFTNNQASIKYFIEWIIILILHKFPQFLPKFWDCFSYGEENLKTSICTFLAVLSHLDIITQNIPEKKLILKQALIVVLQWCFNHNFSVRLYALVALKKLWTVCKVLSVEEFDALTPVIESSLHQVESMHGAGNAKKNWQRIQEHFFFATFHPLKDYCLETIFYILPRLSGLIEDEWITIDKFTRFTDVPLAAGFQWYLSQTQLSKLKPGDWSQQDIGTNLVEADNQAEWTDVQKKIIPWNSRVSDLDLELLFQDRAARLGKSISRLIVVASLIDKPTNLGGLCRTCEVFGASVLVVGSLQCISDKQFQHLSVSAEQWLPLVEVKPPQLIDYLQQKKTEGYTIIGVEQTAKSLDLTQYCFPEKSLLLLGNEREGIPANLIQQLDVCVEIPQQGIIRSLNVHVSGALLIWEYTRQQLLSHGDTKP

Assays:
Assay in all cases: log2 fold change, soluble protein after heating vs DMSO (PISA); higher = thermal stabilisation; K562 lysate, 10 uM; active = over 0.2 and 3.5 SD of the protein, either way, in both replicates (recomputed)
erlotinib = compound: C#Cc1cccc(Nc2ncnc3cc(OCCOC)c(OCCOC)cc23)c1 [erlotinib]
Procedure, shortened: (§1)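 K562 pellets were dounce-homogenised in PBS pH 7.4 with 1 mM MgCl2, and the crude extract at 1 mg/mL protein was treated with 10 μM compound for 30 min. Aliquots were heated for 3 min across 48°C-58°C, pooled, and brought to 0.5% NP-40 at 4°C; soluble protein was the supernatant after 21,000xg for 90 min. Soluble protein was quantified by TMTpro 16plex LC-MS/MS with channel sums equalised, and reported as log2 fold change in thermal stability against DMSO controls, with values from duplicates.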

[1] = compound: C/C(=N\NC(=O)C1=CC(=CC=C1)S(=O)(=O)N2CCOCC2)/C3=C(C=CC(=C3)Cl)O
Procedure, shortened: as §1

[2] = compound: C1=CC(=CC=C1C2=NC3=C(N2)C=C(C=C3)C(=O)N)OC4=CC=C(C=C4)Cl
Procedure, shortened: as §1

[3] = compound: C1=CC2=C(C=CC(=C2)/C=C\3/C(=O)NC(=NCC4=CC=CS4)S3)N=C1
Procedure, shortened: as §1

[4] = compound: C1=CC2=NC=CN=C2C=C1/C=C/3\C(=O)NC(=O)S3
Procedure, shortened: as §1

[5] = compound: C1=CC=C(C=C1)C2=NC(=C(N2)C3=CC=NC=C3)C4=CC(=C(C=C4)Cl)O
Procedure, shortened: as §1

[6] = compound: C1=CC=C2C(=C1)C3=NNC4=CC=CC(=C43)C2=O
Procedure, shortened: as §1

[7] = compound: C1CCN(C1)C(=O)NC2=CC=CC(=C2)NC3=NC=C(C(=N3)NCCC4=CN=CN4)Br
Procedure, shortened: as §1

[8] = compound: C1CN(CCC1(CC2=CC=C(C=C2)Cl)N)C3=NC=NC4=C3C=CN4
Procedure, shortened: as §1

IRAK-1-4 Inhibitor I = compound: C1COCCN1CCN2C3=CC=CC=C3N=C2NC(=O)C4=CC(=CC=C4)[N+](=O)[O-] [IRAK-1-4 Inhibitor I]
Procedure, shortened: as §1

Measured: log2 fold change

TBC1D7 (UniProt Q9P0N9)
inactive: erlotinib 0.014 | [1] -0.273 | [2] 0.003 | [3] -0.006 | [4] -0.003 | [5] -0.125 | [6] 0.099 | [7] 0.041 | [8] -0.029 | IRAK-1-4 Inhibitor I 0.05

TATDN1 (UniProt Q6P1N9)
inactive: erlotinib -0.042 | [1] 0.019 | [2] 0.004 | [3] 0 | [4] -0.014 | [5] 0.005 | [6] -0.006 | [7] -0.014 | [8] -0.043 | IRAK-1-4 Inhibitor I -0.023

TF (UniProt P02787)
inactive: erlotinib -0.059 | [1] 0.174 | [2] 0.016 | [3] -0.019 | [4] -0.009 | [5] 0.017 | [6] 0.087 | [7] 0.118 | [8] 0.071 | IRAK-1-4 Inhibitor I -0.029

Fetched one by one from the entries so far (two):
TBC1D7 (UniProt Q9P0N9)
inactive: erlotinib 0.014 | [1] -0.273 | [2] 0.003 | [3] -0.006 | [4] -0.003 | [5] -0.125 | [6] 0.099 | [7] 0.041 | [8] -0.029 | IRAK-1-4 Inhibitor I 0.05

TF (UniProt P02787)
inactive: erlotinib -0.059 | [1] 0.174 | [2] 0.016 | [3] -0.019 | [4] -0.009 | [5] 0.017 | [6] 0.087 | [7] 0.118 | [8] 0.071 | IRAK-1-4 Inhibitor I -0.029

Carrying on:

TAMM41 isoform 3 (UniProt Q96BW9)
inactive: erlotinib -0.028 | [1] -0.035 | [2] 0.056 | [3] -0.021 | [4] 0.06 | [5] -0.005 | [6] 0.035 | [7] -0.082 | [8] 0.061 | IRAK-1-4 Inhibitor I -0.034

TCAF1 (UniProt Q9Y4C2)
inactive: erlotinib -0.013 | [1] -0.022 | [2] -0.037 | [3] -0.005 | [4] 0.005 | [5] 0.025 | [6] -0.079 | [7] -0.032 | [8] 0.005 | IRAK-1-4 Inhibitor I -0.014

TBRG4 (UniProt Q969Z0)
inactive: erlotinib 0.033 | [1] -0.048 | [2] -0.036 | [3] 0.001 | [4] 0.013 | [5] -0.044 | [6] -0.031 | [7] 0.013 | [8] 0.008 | IRAK-1-4 Inhibitor I -0.009

TAGLN2 isoform 2 (UniProt P37802)
inactive: erlotinib -0.008 | [1] 0.038 | [2] 0.049 | [3] -0.016 | [4] 0.001 | [5] 0 | [6] 0.019 | [7] -0.002 | [8] 0.021 | IRAK-1-4 Inhibitor I 0.002

TCERG1 (UniProt O14776)
inactive: erlotinib -0.03 | [1] -0.121 | [2] -0.001 | [3] -0.013 | [4] -0.006 | [5] -0.03 | [6] -0.016 | [7] -0.004 | [8] 0.023 | IRAK-1-4 Inhibitor I -0.012

TBC1D4 (UniProt O60343)
inactive: erlotinib 0.025 | [1] 0.014 | [2] 0.019 | [3] 0.022 | [4] -0.017 | [5] -0.013 | [6] -0.024 | [7] -0.002 | [8] -0.02 | IRAK-1-4 Inhibitor I -0.017

TCAF2 (UniProt A6NFQ2)
inactive: erlotinib -0.006 | [1] -0.218 | [2] -0.003 | [3] -0.059 | [4] -0.038 | [5] -0.027 | [6] -0.033 | [7] -0.022 | [8] -0.047 | IRAK-1-4 Inhibitor I -0.005

TBC1D5 isoform 2 (UniProt Q92609)
inactive: erlotinib -0.03 | [1] -0.145 | [2] 0.009 | [3] 0.007 | [4] 0.009 | [5] 0.02 | [6] -0.028 | [7] 0.022 | [8] -0.003 | IRAK-1-4 Inhibitor I 0

TBC1D22B (UniProt Q9NU19)
inactive: erlotinib -0.023 | [1] -0.048 | [2] 0.037 | [3] 0.016 | [4] -0.018 | [5] -0.028 | [6] -0.14 | [7] -0.045 | [8] 0.054 | IRAK-1-4 Inhibitor I 0.013

TATDN2 (UniProt Q93075)
inactive: erlotinib 0.104 | [1] 0.036 | [2] -0.108 | [3] -0.025 | [4] -0.138 | [5] 0.019 | [6] -0.02 | [7] -0.038 | [8] -0.031 | IRAK-1-4 Inhibitor I 0.011

TAL1 (UniProt P17542)
inactive: erlotinib 0.035 | [1] 0.033 | [2] 0.02 | [3] -0.023 | [4] -0.013 | [5] -0.032 | [6] -0.022 | [7] 0.031 | [8] 0.026 | IRAK-1-4 Inhibitor I -0.017

TFIP11 (UniProt Q9UBB9)
inactive: erlotinib -0.026 | [1] -0.099 | [2] -0.082 | [3] -0.025 | [4] -0.027 | [5] 0.023 | [6] -0.036 | [7] -0.008 | [8] 0.074 | IRAK-1-4 Inhibitor I -0.016

TFRC (UniProt P02786)
inactive: erlotinib 0 | [1] 0 | [2] 0.021 | [3] -0.009 | [4] 0.012 | [5] -0.009 | [6] 0.028 | [7] 0.015 | [8] -0.005 | IRAK-1-4 Inhibitor I -0.002

TFAM (UniProt Q00059)
inactive: erlotinib -0.025 | [1] 0.029 | [2] -0.022 | [3] 0.031 | [4] -0.011 | [5] 0.014 | [6] -0.03 | [7] 0.039 | [8] -0.004 | IRAK-1-4 Inhibitor I -0.009

TBC1D10B (UniProt Q4KMP7)
inactive: erlotinib 0.028 | [1] -0.101 | [2] 0.038 | [3] 0.02 | [4] -0.019 | [5] -0.015 | [6] 0.022 | [7] 0.004 | [8] 0.045 | IRAK-1-4 Inhibitor I -0.024

TAF9B (UniProt Q9HBM6)
inactive: erlotinib -0.022 | [1] -0.084 | [2] 0.14 | [3] 0.042 | [4] -0.734 | [5] -0.14 | [6] -0.026 | [7] -0.021 | [8] 0.06 | IRAK-1-4 Inhibitor I 0.024

TAX1BP1 (UniProt Q86VP1)
inactive: erlotinib 0.022 | [1] 0.038 | [2] 0.037 | [3] -0.013 | [4] -0.027 | [5] 0.014 | [6] 0.024 | [7] -0.004 | [8] -0.006 | IRAK-1-4 Inhibitor I 0.006

TARS1 (UniProt P26639)
inactive: erlotinib -0.022 | [1] -0.013 | [2] -0.012 | [3] 0.021 | [4] -0.008 | [5] 0.004 | [6] 0.013 | [7] -0.005 | [8] 0.005 | IRAK-1-4 Inhibitor I -0.003

TBC1D8B (UniProt Q0IIM8)
inactive: erlotinib -0.023 | [1] -0.376 | [2] 0.036 | [3] -0.041 | [4] 0 | [5] 0.01 | [6] 0.01 | [7] 0.017 | [8] 0.063 | IRAK-1-4 Inhibitor I 0.001

TBL1XR1 (UniProt Q9BZK7)
inactive: erlotinib 0.011 | [1] -0.011 | [2] 0.007 | [3] 0.009 | [4] -0.052 | [5] 0.022 | [6] -0.016 | [7] -0.01 | [8] 0.031 | IRAK-1-4 Inhibitor I 0.003

TDP2 isoform 2 (UniProt O95551)
inactive: erlotinib 0.006 | [1] 0.027 | [2] 0.016 | [3] -0.035 | [4] 0.004 | [5] -0.006 | [6] -0.003 | [7] -0.014 | [8] -0.025 | IRAK-1-4 Inhibitor I 0.009

TBCC (UniProt Q15814)
inactive: erlotinib -0.005 | [1] 0.048 | [2] 0.007 | [3] 0.023 | [4] -0.002 | [5] 0.011 | [6] 0.027 | [7] -0.002 | [8] 0.03 | IRAK-1-4 Inhibitor I -0.006

TAPT1 (UniProt Q6NXT6)
inactive: erlotinib 0 | [1] -0.092 | [2] 0.068 | [3] -0.038 | [4] -0.001 | [5] -0.059 | [6] -0.039 | [7] -0.059 | [8] 0.01 | IRAK-1-4 Inhibitor I 0.002

TERF2 (UniProt Q15554)
inactive: erlotinib -0.002 | [1] -0.019 | [2] -0.008 | [3] 0.039 | [4] 0.006 | [5] -0.016 | [6] -0.018 | [7] 0.042 | [8] -0.073 | IRAK-1-4 Inhibitor I 0.023

TFG (UniProt Q92734)
inactive: erlotinib -0.017 | [1] 0.008 | [2] 0.041 | [3] 0.011 | [4] 0 | [5] 0.008 | [6] -0.008 | [7] 0.002 | [8] 0.019 | IRAK-1-4 Inhibitor I 0.004

TBCA (UniProt O75347)
inactive: erlotinib -0.093 | [1] -0.048 | [2] -0.084 | [3] -0.031 | [4] 0.022 | [5] -0.021 | [6] 0.016 | [7] 0.043 | [8] -0.044 | IRAK-1-4 Inhibitor I -0.014

TARBP1 (UniProt Q13395)
inactive: erlotinib 0.134 | [1] 0.047 | [2] -0.02 | [3] 0.051 | [4] -0.059 | [5] 0.044 | [6] -0.048 | [7] 0.007 | [8] 0.034 | IRAK-1-4 Inhibitor I 0.084
